Laboratory results reported in publication PMC10163288.
The other results are listed elsewhere or left out.

B1: il2ra_site1_1z92_sap_20_mot_HHH_b1_06868_000000124_0001_1_20_H_._HHH_b2_03533_0001_0000400029_0000001_0_0001 (protein)
chain: SSSSSSSAEELFELLRRQLEMARSERTRKWALELLEAVARLANNPELEELVEELKEEFSSSSSSS
B2: il2ra_site1_3nfp_sap_9_mot_HHH_b1_07180_af2_000000260_0001_1_19_H_._HHH_b1_08471_0001_0000200015_0000001_0_0001_af2pred_0001_af2pred_1_swapped (protein)
chain: DEELRELAELILKGDPEKFKELLEEIKRRIGDPTQIRAFLRFIEASAKVAGNPEAEEIVKEIEEK
B3: il2ra_site2_2erj_sap_27_mot_HHH_b1_06157_000000296_0001_22_38_H_._HHH_b1_03854_0001_0000100004_0000001_0_0001 (protein)
chain: SSSSSEEEVQELLKEAKELLEEGNPEEAERVLSRAFELAFELNDPELASKIIELMASIAHSSSSS
B4: il2ra_site2_3nfp_sap_26_mot_HHH_b1_00015_000000185_0001_19_35_H_._HHH_b2_06138_0001_0000600047_0000001_0_0001_af2pred_0001_af2pred (protein)
chain: SSSSSSDEEEEVEKLLEEAKHIEDEFELYAVLADAARIAFELKDEELRRLVKEVRHELSSSSSSS
B5: il2ra_site2_3nfp_normal_mot_HHH_b2_02333_af2_000000028_0001_1_19_H_._HHH_b1_01192_af2_0001_0000200009_0000001_1 (protein)
chain: SSSDVAELANEAFELLQQLREEGDPELREEIEELLEEAKELARSERERRILELLEAALLLLSSSS
B6: il2ra_site1_1z92_normal_mot_HHH_b2_06133_af2_000000132_0001_1_18_H_._HHH_b2_06097_0001_0000100003_0000001_0 (protein)
chain: SSSSSHEEEVERLLREAEEAAERGDNRKWSELLRRALRVAAENRDQELRRKIEEFARELNSSSSS
B7: il2ra_site1_2b5i_normal_mot_HHH_b2_04910_000000118_0001_1_19_H_._HHH_b1_07011_0001_0000200008_0000001_0_af2pred_0001_af2pred (protein)
chain: SSSSSELAKRILELLEEANELFKNGNPEEAREVLQEALELAEELGSRSARKFVEAALRILSSSSS
B8: il2ra_site1_1z92_sap_10_mot_HHH_b1_02460_000000277_0001_1_17_H_._HHH_b2_06201_af2_0001_0000900039_0000001_0_0001 (protein)
chain: TLREELREELEEAAKRGTLEEVVEKLLEMAERDAGDPRLAAQYLKQLLKRLGDPEAKKVLEELRR
B9: il2ra_site2_3nfp_sap_21_mot_HHH_b2_05281_000000198_0001_39_56_H_._HHH_b1_02391_0001_0000600024_0000001_0_0001 (protein)
chain: SSSSSSDNSELISRVIHLRKEGNPEEARELLEEAIELAQENNDEDSVRYLEAVLALLRSSSSSSS
B10: il2ra_site2_2erj_sap_27_mot_46479c6699afdbd8d5d5faf00326b0b9_0001_1_af2_000000112_0001_34_47_H_._HHH_b2_01914_0001_0000400016_0000001_0_0001_af2pred_0001_af2pre … (protein)
chain: SSSSDARELAELARWAARLLEEAGNPEEAREFLRKVLEILEELGNEEAQELVERLLEEIKNSSSS
B11: il2ra_site2_2erj_normal_mot_HHH_b2_01204_af2_000000056_0001_19_34_H_._HHH_b1_07940_af2_0001_0000100003_0000001_1 (protein)
chain: SSSSDEVEERVKELLEEAREAYKNGDLEEVYKIAVEALHVASKNQDPELQEEVAKVARELSSSSS
B12: il2ra_site2_3nfp_normal_mot_HHH_b1_07556_000000077_0001_42_55_H_._738ccc93aada9afe30a0d8950425dc90_0001_1_0001_0000100012_0000001_0_af2pred_0001_1_af2pred_swapp … (protein)
chain: DVERELSRLARERDDPLVLLALAEIRRLKLNGVPPEEIEEIVEEIIKKAGLPPEIEELLREAVRE
B13: il2ra_site2_2erj_normal_mot_HHH_b1_08609_000000203_0001_43_56_H_._HHH_b1_04650_af2_0001_0000300024_0000001_1 (protein)
chain: SSSSDEELERLFELASRLLEAIHKGDEELIEELLEEIRRIIEEFNSDNAREILERLERHGSSSSS
B14: il2ra_site2_3nfp_sap_21_mot_HHH_b2_01071_af2_000000008_0001_40_57_H_._075aee7f5d3771457fc9f4d4e0efb7bf_0001_0001_0000400016_0000001_0_0001_af2pred_0001_af2pred (protein)
chain: SSSSSDEEEEEVEELLERAKHTEDKHELYALLALAAAIAAENDDEELERLVKKVLQELQNSSSSS
B15: il2ra_site2_2erj_normal_mot_HHH_b1_02139_af2_000000203_0001_1_18_H_._HHH_b2_02853_0001_0000100001_0000001_0 (protein)
chain: SSSSSDAEKAARAIELTIRLLQEKNDEETLEQVVRSALSYAEAFNDEELFEFVEKVLEEISSSSS
B16: il2ra_site1_3nfp_sap_20_mot_HHH_b2_05592_000000000_0001_42_56_H_._8cccc599a7bb59b440cc763c2d19aad1_0001_0001_0000500045_0000001_0_0001 (protein)
chain: SSSSDLQEEVEELLEEAERALKEGNPEEAMKLAERAFEIARKAGDRELAELIWRFIHELISSSSS
B17: il2ra_site1_3nfp_sap_13_mot_HHH_b1_03725_af2_000000070_0001_39_57_H_._HHH_b2_02325_0001_0000200004_0000001_0_0001_af2pred_0001_af2pred_1_swapped (protein)
chain: SSSSSELERRVEELLEEAEELAKRGDLRAARVLQEAYRLVAEAGNKELAEKIFEVQRRLASSSSS
B18: il2ra_site1_1z92_normal_mot_HHH_b1_04604_af2_000000029_0001_42_56_H_._HHH_b1_03981_0001_0000400027_0000001_0_af2pred_0001_af2pred (protein)
chain: SSSSSSSVVELIEELIKLWQNNDPEEFERVAEELEELAKELDNRTAERILENARKAAGSSSSSSS
B19: il2ra_site2_2erj_sap_18_mot_a171aa182591c97700389b7a6f87ba9a_0001_af2_000000020_0001_32_46_H_._HHH_b1_05100_af2_0001_0000100010_0000001_1_0001_af2pred_0001_af2p … (protein)
chain: SSSSSSSKEHVEELLEEAEHVEDSERRRHLLLRALLVALKLGDPELQRLVKEVLERTQSSSSSSS

Each binder was assayed against il2ra, P01589 (assay: yeast display titration).

Apparent Kd, inactive:
B1 no binding seen
B2 no binding seen
B3 no binding seen
B4 no binding seen
B5 no binding seen
B6 no binding seen
B7 no binding seen
B8 no binding seen
B9 no binding seen
B10 no binding seen
B11 no binding seen
B12 no binding seen
B13 no binding seen
B14 no binding seen
B15 > 502 nM
B16 no binding seen
B17 no binding seen
B18 no binding seen
B19 no binding seen

Quoted at random: two records from the list.
Apparent Kd, inactive:
B12 no binding seen
B3 no binding seen
